Assay results published in article PMC9395636.
Results are given in words; binding and its absence hold for the method and conditions named. Binding seen in cells or lysates may run through a third protein. Some binding calls cover weakened binding; strength is not graded here.

Amino acid sequences for entries named in this document (tags omitted). Residues count along the entry.
UniProt Q8BWG9: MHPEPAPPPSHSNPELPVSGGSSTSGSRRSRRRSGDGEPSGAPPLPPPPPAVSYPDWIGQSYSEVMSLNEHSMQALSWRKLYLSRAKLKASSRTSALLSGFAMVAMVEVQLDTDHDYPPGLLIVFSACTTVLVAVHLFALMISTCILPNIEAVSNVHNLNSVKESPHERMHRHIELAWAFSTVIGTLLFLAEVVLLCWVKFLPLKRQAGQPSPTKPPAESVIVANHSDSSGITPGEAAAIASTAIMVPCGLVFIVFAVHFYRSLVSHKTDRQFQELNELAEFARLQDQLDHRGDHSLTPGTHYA
UniProt Q3UH93, residues 49-1925: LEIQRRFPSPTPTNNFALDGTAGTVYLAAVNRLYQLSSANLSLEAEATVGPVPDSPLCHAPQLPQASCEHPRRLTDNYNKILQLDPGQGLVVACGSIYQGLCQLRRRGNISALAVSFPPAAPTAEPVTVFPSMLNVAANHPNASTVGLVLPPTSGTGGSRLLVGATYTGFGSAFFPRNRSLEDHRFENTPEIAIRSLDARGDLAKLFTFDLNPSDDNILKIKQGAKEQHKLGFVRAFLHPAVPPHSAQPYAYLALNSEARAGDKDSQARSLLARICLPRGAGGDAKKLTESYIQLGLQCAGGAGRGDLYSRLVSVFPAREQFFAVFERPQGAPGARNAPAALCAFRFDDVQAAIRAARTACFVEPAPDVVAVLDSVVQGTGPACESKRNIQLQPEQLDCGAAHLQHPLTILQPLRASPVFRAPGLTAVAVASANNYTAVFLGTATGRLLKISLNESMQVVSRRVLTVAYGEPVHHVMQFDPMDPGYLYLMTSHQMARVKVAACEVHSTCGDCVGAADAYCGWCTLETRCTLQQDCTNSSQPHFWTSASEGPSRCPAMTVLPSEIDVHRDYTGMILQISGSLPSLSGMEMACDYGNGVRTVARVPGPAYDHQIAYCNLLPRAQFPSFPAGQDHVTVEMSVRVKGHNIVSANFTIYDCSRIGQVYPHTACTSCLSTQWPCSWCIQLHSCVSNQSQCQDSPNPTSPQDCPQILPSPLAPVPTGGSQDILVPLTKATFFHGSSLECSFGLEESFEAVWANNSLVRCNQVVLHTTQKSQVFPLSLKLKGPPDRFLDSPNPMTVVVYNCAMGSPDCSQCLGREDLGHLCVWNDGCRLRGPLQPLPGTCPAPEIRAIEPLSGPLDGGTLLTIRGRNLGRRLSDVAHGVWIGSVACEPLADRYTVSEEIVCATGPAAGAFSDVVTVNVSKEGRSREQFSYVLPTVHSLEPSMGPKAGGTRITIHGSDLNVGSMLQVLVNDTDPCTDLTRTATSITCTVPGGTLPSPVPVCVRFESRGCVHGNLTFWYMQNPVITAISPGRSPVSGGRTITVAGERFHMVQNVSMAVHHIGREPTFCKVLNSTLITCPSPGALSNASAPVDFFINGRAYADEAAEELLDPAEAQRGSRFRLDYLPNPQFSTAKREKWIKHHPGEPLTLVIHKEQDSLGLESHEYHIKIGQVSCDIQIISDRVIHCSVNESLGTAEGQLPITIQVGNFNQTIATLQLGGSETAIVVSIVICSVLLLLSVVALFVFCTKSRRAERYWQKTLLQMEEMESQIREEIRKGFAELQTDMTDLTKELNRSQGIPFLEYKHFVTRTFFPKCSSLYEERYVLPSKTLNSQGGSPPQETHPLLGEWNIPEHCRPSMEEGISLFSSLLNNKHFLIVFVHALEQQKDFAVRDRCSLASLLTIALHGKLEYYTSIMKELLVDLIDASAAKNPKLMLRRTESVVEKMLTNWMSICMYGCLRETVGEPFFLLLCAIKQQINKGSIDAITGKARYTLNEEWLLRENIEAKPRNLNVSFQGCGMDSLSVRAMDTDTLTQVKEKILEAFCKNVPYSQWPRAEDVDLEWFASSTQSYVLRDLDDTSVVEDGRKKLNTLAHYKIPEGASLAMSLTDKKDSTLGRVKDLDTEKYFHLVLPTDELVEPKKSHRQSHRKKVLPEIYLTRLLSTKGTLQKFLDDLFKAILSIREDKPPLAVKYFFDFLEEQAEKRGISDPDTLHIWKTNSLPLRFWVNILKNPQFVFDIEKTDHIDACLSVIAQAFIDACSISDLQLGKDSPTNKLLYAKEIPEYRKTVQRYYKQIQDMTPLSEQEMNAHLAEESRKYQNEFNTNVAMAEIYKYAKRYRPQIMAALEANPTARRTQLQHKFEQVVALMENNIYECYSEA

Target: ORAI1 (mouse (endogenous in primary EECs)) (UniProt Q8BWG9)
Assay: co-IP; EEC lysates in IP lysis buffer (pH 7.4, 0.025 M Tris, 0.15 M NaCl, 0.001 M EDTA, 5% glycerol) incubated with anti-PLXND1, anti-ORAI1 or IgG overnight at 4°C; Western blot for PLXND1 and ORAI1

PLXND1 (from UniProt Q3UH93 49-1925) (receptor)
binding: binds
